Amino acid sequences for entries named in this document (tags omitted).
UniProt Q9Z2D8: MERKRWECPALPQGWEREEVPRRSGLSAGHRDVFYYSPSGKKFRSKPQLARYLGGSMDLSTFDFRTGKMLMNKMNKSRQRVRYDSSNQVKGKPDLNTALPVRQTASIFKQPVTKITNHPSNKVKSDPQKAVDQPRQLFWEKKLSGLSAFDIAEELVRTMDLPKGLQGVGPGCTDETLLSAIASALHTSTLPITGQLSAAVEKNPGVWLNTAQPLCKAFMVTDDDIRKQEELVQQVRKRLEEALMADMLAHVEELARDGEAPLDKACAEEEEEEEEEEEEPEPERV
UniProt Q8CHY6: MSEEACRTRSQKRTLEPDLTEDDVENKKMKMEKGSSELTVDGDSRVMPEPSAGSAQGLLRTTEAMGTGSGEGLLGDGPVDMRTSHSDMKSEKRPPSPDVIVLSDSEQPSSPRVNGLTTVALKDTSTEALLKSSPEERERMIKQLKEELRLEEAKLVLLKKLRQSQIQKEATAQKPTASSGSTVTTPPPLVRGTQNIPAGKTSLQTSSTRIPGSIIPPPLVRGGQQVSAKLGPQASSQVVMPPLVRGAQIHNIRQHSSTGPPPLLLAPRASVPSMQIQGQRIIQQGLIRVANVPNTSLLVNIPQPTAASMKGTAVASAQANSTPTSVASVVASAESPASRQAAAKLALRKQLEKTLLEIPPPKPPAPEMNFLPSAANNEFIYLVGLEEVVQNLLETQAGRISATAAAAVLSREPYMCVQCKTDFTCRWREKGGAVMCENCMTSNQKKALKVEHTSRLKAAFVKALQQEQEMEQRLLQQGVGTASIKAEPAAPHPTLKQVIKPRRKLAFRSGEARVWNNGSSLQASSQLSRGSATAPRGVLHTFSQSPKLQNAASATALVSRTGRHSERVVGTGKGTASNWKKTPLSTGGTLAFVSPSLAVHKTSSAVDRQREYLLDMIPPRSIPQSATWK

In publication doi:10.1101/192781:

Target: 2XFlag-Mbd3 (DOX inducible allele, Rosa26-M2RtTA+/- Col1a:TetO-2XFlag-Mbd3+/-) (UniProt Q9Z2D8)
Assay: affinity purification with mass spectrometry

Substance: Gatad2a (from UniProt Q8CHY6 1-629)
- binding: binds

No constants are given. Whether binding was seen depends on the method and setting. In cells and extracts the contact can be indirect. These calls come from enrichment with a bait or labelling near it, and not all partners need be listed.
